The record followed here is PMC6868062.

The target in experiment [1] is H2A.X (human (endogenous in SW480)) (UniProt P16104). Nature of the experiment: co-IP; endogenous proteins in SW480 lysate; immunoprecipitation with Livin antibody or H2A.X antibody (reciprocal), 4°C overnight, western blotting. For orientation: A western blot detects proteins with antibodies after separation by electrophoresis.
For a further experiment, the target named is HA-tagged WT H2A.X (UniProt P16104). The experiment in a line: co-IP; HCT116 cells with shRNA knock-down of endogenous H2A.X, transfected with HA-tagged H2A.X WT or Y142F; lysate harvested 48 h after transfection; immunoprecipitation and western blotting for Livin.

Results are given in words; binding and its absence hold for the method and conditions named. Binding seen in cells or lysates may run through a third protein. Some binding calls cover weakened binding; strength is not graded here.

B1: Livin (protein, UniProt Q96CA5 1-298)
chain: MGPKDSAKCLHRGPQPSHWAAGDGPTQERCGPRSLGSPVLGLDTCRAWDHVDGQILGQLRPLTEEEEEEGAGATLSRGPAFPGMGSEELRLASFYDWPLTAEVPPELLAAAGFFHTGHQDKVRCFFCYGGLQSWKRGDDPWTEHAKWFPSCQFLLRSKGRDFVHSVQETHSQLLGSWDPWEEPEDAAPVAPSVPASGYPELPTPRREVQSESAQEPGGVSPAEAQRAWWVLEPPGARDVEAQLRRLQEERTCKVCLDRAVSIVFVPCGHLVCAECAPGLQLCPICRAPVRSRVRTFLS
Turning to B1, the binding result (in experiment [1]; with HA-tagged WT H2A.X) was “binds” each time.
